Source: patent US6962922B2, “Alkynylated quinazoline compounds” (Warner-Lambert Company LLC, priority 2001, dated 2005)
pIC50: −log10 of the molar value. Some entries share one result that the patent states for a list of compounds.

Molecular target: T1, catalytic domain of human MMP-13 (Homo sapiens, UniProt P45452)
T1 construct: 2.5 nM of the catalytic domain of human MMP-13
Assay: Inhibition of proteolysis of a thioester peptide substrate by MMP-13
Format: biochemical
Conditions: read-out: IC50 values on MMP-13; substrate Ac-Pro-Leu-Gly-thioester-Leu-Leu-Gly-OEt 100 μM, pH 7.0, 2.5 nM enzyme, absorbence at 405 nm

SMILES | pIC50
COc1ccc(CC#Cc2ccc3c(c2)c(=O)n(Cc2ccccc2)c2nncn32)cc1 [Example 7, 4-Benzyl-7-[(4-methoxyphenyl)-prop-1-ynyl]-4H-[1,2,4]-triazolo[4,3-a]quinazolin-5-one] | > 5.00
COC(=O)c1ccc(Cn2c(=O)c3cc(C#CCc4ccc(OC)cc4)ccc3n3cnnc23)cc1 [Example 8, Methyl 4-{7-[3-(4-methoxy-phenyl)-prop-1-ynyl]-5-oxo-5H-[1,2,4]triazolo[4,3-]quinazolin-4-ylmethyl}-benzoate] | > 5.00
O=c1c2cc(C#CCc3ccccc3)ccc2n2cnnc2n1Cc1ccccc1 [Example 6, 4-Benzyl-7-(3-phenyl-prop-1-ynyl)-4H-[1,2,4]triazolo[4,3-a]quinazolin-5-one] | > 5.00
COC(=O)c1ccc(Cn2c(=O)c3cc(C#CCc4ccc(OC)cc4)ccc3n(C)c2=O)cc1 [Example 1, Methyl 4-{6-[3-(4-methoxyphenyl)-prop-1-ynyl]-1-methyl-2,4-dioxo-1,4-dihydro-2H-quinazolin-3-ylmethyl}-benzoate] | > 5.00
